Results are given in words; binding and its absence hold for the method and conditions named. For part of these data: In cells and extracts the contact can be indirect.
Legend:
GST-p150^Glued C2 = GST-p150^Glued C2 (UniProt P28023); assay: pull-down; pull down of E. coli-purified recombinant GST fusions with recombinant His-AP-2β ear; Western blot; both purified
GST-p150^Glued C = GST-p150^Glued C (UniProt P28023); assay: as above
[1] = molecular target: AviHA-tagged p150^Glued N fragment (1-490 aa) (UniProt P28023); assay: pull-down; Avi-tag pull down: in vivo biotinylated Avi-tagged baits pulled down from HEK293T cells, E. coli-produced His-AP-2β ear added; Western blot

Protein sequences, listed by entry. Tags and fused reporters are not part of them. Lines headed by an entry give the natural chain unless they say otherwise; changes in a name come on top. Chains listed by the source or under a name are the forms on record and can include a tag or linker. Residues count along the entry.
UniProt P28023: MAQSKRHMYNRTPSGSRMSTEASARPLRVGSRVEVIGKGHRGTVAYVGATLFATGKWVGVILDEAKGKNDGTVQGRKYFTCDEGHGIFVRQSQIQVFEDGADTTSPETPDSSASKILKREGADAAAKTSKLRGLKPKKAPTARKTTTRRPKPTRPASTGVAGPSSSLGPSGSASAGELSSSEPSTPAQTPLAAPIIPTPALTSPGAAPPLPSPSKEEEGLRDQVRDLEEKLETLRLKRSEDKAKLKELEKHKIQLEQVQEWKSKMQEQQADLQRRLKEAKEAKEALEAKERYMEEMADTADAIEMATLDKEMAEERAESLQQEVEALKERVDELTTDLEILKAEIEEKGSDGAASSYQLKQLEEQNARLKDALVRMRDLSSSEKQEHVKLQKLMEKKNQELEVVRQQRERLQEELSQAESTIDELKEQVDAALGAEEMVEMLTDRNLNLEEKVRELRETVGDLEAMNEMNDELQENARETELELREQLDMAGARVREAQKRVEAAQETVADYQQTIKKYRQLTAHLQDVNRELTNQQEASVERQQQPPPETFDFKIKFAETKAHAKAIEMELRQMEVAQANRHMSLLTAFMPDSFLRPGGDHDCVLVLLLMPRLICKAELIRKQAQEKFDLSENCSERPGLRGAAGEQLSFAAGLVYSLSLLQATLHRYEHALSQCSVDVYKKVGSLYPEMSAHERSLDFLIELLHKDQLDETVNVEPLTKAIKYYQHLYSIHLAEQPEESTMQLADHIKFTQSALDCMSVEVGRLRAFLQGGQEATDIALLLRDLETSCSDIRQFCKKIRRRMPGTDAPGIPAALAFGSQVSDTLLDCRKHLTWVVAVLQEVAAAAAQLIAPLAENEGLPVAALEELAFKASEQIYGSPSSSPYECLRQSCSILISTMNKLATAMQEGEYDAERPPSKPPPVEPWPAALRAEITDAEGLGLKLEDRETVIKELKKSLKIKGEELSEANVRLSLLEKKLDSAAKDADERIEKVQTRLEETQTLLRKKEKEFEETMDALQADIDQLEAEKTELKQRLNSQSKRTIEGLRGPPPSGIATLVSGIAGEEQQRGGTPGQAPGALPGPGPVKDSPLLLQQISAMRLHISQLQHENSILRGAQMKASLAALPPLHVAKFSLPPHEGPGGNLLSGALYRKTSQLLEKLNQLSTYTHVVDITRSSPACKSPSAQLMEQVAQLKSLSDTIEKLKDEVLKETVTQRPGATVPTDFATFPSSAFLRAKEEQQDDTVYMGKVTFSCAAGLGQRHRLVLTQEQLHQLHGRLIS
AviHA-tagged p150^Glued N fragment: residues 1-490 of P28023
GST-p150^Glued C: residues 490-1280 of P28023
GST-p150^Glued C2: residues 1049-1280 of P28023
UniProt P63010: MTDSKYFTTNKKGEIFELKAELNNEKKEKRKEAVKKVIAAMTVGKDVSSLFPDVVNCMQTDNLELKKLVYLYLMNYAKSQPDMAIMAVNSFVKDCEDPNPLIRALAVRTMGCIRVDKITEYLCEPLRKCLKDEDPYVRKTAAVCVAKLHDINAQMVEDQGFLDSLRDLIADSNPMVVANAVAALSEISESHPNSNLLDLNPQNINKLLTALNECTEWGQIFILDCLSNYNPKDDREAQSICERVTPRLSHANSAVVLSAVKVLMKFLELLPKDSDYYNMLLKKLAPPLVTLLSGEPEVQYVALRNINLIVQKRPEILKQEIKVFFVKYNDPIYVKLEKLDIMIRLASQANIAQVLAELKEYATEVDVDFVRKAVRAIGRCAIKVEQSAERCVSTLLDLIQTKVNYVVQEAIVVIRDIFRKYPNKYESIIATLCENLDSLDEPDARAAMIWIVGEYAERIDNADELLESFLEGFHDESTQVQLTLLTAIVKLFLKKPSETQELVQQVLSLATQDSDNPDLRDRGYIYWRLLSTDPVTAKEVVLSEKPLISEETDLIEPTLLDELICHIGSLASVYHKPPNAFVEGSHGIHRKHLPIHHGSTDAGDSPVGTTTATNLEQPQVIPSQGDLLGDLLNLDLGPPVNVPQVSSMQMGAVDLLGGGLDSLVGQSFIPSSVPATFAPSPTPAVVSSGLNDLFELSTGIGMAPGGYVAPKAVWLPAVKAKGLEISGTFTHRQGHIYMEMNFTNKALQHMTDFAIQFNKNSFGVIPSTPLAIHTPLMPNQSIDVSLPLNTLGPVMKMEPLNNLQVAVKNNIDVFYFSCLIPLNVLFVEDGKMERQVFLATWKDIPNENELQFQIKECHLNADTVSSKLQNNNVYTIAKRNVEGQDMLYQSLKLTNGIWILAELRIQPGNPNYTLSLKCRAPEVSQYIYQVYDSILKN

Measured: binding

His-AP-2β ear (His6-AP-2β appendage domain) (from UniProt P63010) (domain or fragment)
no binding: all assays above
